Assay results as given in patent US9439909B2, “Compositions and methods for sensitizing a neoplastic cell to radiation” (The Broad Institute, Inc., priority 2013, dated 2016).
For at least one compound, name, drawing or mass did not settle the structure.

Tested on: LC-1/SQSF cells
Experiment: Cellular viability of LC-1/SQSF cells after incubation with PI3K inhibitors
Conditions: 48 hours

## O=c1cc(N2CCOCC2)oc2c(-c3ccccc3)cccc12 [LY 294002]
  decrement in cellular viability: mirrored the effect on NRF2 activity
